Measured values published in PMC5651841, “The Staphylococcus aureus extracellular matrix protein (Emp) has a fibrous structure and binds to different extracellular matrices” (Scientific Reports, 2017).
These are yes or no findings as the source states them, for the method shown. Some entries that bind do so weakly or less than the wild type.

Chains of the proteins cited; added tags and fusions are not shown. Lines headed by an entry give the natural chain unless they say otherwise; changes in a name come on top.
UniProt P02452: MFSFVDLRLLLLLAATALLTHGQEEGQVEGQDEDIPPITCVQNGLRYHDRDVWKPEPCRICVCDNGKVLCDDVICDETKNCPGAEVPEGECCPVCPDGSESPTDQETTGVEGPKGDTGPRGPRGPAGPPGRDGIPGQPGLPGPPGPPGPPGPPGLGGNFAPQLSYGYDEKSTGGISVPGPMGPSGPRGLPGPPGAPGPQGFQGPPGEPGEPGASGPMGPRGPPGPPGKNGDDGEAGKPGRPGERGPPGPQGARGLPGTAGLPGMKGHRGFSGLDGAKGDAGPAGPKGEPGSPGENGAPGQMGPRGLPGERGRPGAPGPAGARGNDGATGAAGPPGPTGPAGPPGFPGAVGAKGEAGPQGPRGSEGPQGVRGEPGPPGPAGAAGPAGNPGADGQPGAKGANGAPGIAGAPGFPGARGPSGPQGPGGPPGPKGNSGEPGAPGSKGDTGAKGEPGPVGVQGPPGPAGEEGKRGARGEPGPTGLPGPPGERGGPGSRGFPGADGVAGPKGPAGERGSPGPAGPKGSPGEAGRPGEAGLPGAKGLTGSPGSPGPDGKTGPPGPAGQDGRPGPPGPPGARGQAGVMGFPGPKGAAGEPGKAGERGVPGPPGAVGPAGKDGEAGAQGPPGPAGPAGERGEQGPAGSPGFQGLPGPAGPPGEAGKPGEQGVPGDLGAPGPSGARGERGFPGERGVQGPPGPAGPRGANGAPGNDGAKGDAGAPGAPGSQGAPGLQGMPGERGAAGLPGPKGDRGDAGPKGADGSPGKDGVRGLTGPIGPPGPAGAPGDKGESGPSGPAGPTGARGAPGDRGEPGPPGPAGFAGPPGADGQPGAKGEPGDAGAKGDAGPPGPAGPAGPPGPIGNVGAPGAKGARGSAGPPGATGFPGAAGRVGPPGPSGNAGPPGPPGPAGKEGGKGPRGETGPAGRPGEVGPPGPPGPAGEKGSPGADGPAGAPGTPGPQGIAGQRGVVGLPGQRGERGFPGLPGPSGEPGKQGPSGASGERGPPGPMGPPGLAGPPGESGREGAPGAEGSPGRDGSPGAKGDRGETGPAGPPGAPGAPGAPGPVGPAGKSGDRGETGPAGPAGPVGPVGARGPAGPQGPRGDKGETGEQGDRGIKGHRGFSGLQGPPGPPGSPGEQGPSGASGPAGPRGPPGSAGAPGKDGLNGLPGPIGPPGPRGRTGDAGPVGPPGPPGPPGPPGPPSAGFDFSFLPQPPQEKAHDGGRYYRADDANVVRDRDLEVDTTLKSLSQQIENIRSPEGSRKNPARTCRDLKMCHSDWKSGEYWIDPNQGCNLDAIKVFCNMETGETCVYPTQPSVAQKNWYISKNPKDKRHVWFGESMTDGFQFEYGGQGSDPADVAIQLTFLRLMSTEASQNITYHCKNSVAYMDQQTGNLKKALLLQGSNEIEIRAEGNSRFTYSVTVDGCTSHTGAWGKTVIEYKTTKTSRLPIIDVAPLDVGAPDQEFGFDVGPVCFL

B1: full-length Emp protein (extracellular matrix protein Emp of Staphylococcus aureus, without the signal peptide) (natural protein)
chain: SVTESVDKKFVVPESGINKIIPAYDEFKNSPKVNVSNLTDNKNFVASEDKLNKIADSSAASKIVDKNFVVPESKLGNIVPEYKEINNRVNVATNNPASQQVDKHFVAKGPEVNRFITQNKVNHHFITTQTHYKKVITSYKSTHVHKHVNHAKDSINKHFIVKPSESPRYTHPSQSLIIKHHFAVPGYHAHKFVTPGHASIKINHFCVVPQINSFKVIPPYGHNSHRMHVPSFQNNTTATHQNAKVNKAYDYKYFYSYKVVKGVKKYFSFSQSNGYKIGKPSLNIKNVNYQYAVPSYSPTHYVPEFKGSLPAPRV
notes: gene of 1,023 nucleotides; numbers count on: the protein without signal peptide and without His-tag; The vector (printed pQ30-UA, Qiagen) probably adds an N-terminal His6 (surmised); Primer EmpFor1UA starts at nt +76 (codon 26), which would give 315 residues against the printed 314; also called EmpFL; source: E. coli (TG1 transformants, plasmid pQemp), purified (Ni-NTA in 8 M urea, solubilized by …)

How the values were obtained:
[1] = target: collagen I (UniProt P02452); assay: ELISA; matrix component (0.25 ug/well in 0.1 M Na2CO3, overnight 4 C) immobilised on polystyrene plates; Emp forms 0-1.5 uM added for 1 h at RT, PBST washes; detected with polyclonal anti-Emp IgG and AP-conjugated anti-rabbit IgG; KD from steady-state curves, one-site binding model; both purified
[2] = target: full-length Emp protein (extracellular matrix protein Emp of Staphylococcus aureus, without the signal peptide) (S. aureus) (UniProt Q2G012); assay: dynamic light scattering (photon correlation spectroscopy); 12.94 uM EmpFL in 50 mM sodium phosphate, pH7, 250 mM NaF, 25 C, Zetasizer Nano ZS; both purified
[3] = target: full-length Emp protein (extracellular matrix protein Emp of Staphylococcus aureus, without the signal peptide) (S. aureus) (UniProt Q2G012); assay: transmission electron microscopy (negative stain); purified EmpFL (3.1 nmol) or Emp2+3 (2.4 nmol) in 20 ul adsorbed on carbon-coated grids, 2% uranyl acetate; both purified

Molecule	binding [1]	binding [2]	binding [3]
Emp1 (N-terminal fragment of Emp) (from UniProt Q2G012 26-116) (domain or fragment)	no binding (tested: up to 1.5 uM)	–	–
B1	–	binds	binds
